Our source for the binding values is paper PMC12255776.

Protein sequences, listed by entry. Tags and fused reporters are not part of them. Lines headed by an entry give the natural chain unless they say otherwise; changes in a name come on top. Residues count along the entry.
UniProt Q86U44: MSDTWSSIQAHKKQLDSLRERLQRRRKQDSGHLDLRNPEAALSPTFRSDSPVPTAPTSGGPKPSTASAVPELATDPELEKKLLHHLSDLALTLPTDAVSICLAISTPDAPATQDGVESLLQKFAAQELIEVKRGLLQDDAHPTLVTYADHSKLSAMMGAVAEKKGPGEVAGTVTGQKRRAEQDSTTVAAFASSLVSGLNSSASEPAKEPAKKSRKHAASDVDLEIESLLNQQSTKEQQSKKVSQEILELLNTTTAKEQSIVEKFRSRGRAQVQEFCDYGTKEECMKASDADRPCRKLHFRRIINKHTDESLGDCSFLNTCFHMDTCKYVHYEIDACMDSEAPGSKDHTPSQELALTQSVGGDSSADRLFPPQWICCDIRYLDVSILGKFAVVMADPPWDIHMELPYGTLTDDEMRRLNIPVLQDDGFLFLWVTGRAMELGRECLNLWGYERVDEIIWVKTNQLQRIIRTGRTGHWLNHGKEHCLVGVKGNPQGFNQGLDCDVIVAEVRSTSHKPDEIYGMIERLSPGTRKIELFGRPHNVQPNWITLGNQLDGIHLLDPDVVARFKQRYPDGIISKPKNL
Flag-METTL3 ΔN (N-terminal truncated, 260–580 aa): residues 260-580 of Q86U44
UniProt Q969H0: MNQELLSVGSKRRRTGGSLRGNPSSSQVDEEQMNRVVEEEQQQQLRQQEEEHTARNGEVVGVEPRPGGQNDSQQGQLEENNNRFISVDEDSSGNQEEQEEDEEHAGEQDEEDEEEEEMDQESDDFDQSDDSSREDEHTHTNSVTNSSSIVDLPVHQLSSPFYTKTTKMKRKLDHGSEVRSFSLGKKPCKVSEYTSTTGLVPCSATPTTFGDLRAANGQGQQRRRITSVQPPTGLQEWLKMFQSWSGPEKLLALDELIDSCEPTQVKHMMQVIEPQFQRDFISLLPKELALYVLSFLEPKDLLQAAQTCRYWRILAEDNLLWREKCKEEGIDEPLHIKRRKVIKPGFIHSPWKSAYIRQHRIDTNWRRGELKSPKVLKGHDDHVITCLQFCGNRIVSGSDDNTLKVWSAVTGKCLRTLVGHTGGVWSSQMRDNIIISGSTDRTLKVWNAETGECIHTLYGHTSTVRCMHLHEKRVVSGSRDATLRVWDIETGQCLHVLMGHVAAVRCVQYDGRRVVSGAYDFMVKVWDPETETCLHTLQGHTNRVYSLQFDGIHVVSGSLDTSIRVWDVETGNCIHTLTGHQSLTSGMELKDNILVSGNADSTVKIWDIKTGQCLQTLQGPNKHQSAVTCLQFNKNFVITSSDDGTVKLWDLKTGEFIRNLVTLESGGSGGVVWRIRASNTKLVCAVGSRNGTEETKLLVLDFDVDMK

No constants are given. Whether binding was seen depends on the method and setting. For some of these results: Binding seen in cells or lysates may run through a third protein. Some binding calls cover weakened binding; strength is not graded here. For some of these results: Where a sequence is shown, tags or fusion partners need not be part of it.

Assay [1] deals with Flag-METTL3 3A mutant (T186A/S192A/S193A) (human) (UniProt Q86U44). The experiment in a line: co-IP; Huh-7 cells cotransfected with HA-tagged and Flag-tagged plasmids, 48 h; precleared lysates (50 mM Tris-HCl pH 8.0, 150 mM NaCl, 5 mM EDTA, 0.5% Triton X-100, 0.1% sodium deoxycholate) with anti-Flag or anti-HA antibodies overnight, protein A/G magnetic beads 4 h, immunoblot; for WTAP also with TMG or OSMI-1 treatment of the cells. (In general: In western blotting, separated proteins are transferred to a membrane and probed.)

Assay [2] deals with Flag-METTL3 wild type (full-length human METTL3 in pSEB-3×Flag) (human) (UniProt Q86U44). The assay is described as above.
Assay [3] concerns the target METTL3 (methyltransferase-like 3), endogenous (human (endogenous in Huh-7)) (UniProt Q86U44). The experiment in a line: co-IP; endogenous METTL3 and OGT in Huh-7 cells.
The target of assay [4] is Flag-METTL3 wild type (full-length human METTL3 in pSEB-3×Flag) (human) (UniProt Q86U44). Description: co-IP; Huh-7 cells cotransfected with HA-tagged and Flag-tagged plasmids, 48 h; precleared lysates (50 mM Tris-HCl pH 8.0, 150 mM NaCl, 5 mM EDTA, 0.5% Triton X-100, 0.1% sodium deoxycholate) with anti-Flag or anti-HA antibodies overnight, protein A/G magnetic beads 4 h, immunoblot; for WTAP also with TMG or OSMI-1 treatment of the cells. The source holds these as a separate data set.

The target is the same in assay [5]. The experiment in a line: co-IP; HA-OGT and Flag-METTL3 (WT, ΔC, ΔN) in HEK293 cells.
Assay [6] concerns the target Flag-METTL3 ΔN (N-terminal truncated, 260–580 aa) (human) (UniProt Q86U44). Described as above.
Assay [7] addresses METTL3 of the in vitro GST pull-down (human) (UniProt Q86U44). The experiment in a line: pull-down; GST pull-down in vitro; immunoblot and Coomassie blue staining; both purified.

For the molecule HA-FBXW7 (from UniProt Q969H0 1-707), the binding result in assay [1] and in assay [2] was “binds” throughout.

B1: OGT, endogenous (enzyme, UniProt O15294 1-1046)
chain: MASSVGNVADSTEPTKRMLSFQGLAELAHREYQAGDFEAAERHCMQLWRQEPDNTGVLLLLSSIHFQCRRLDRSAHFSTLAIKQNPLLAEAYSNLGNVYKERGQLQEAIEHYRHALRLKPDFIDGYINLAAALVAAGDMEGAVQAYVSALQYNPDLYCVRSDLGNLLKALGRLEEAKACYLKAIETQPNFAVAWSNLGCVFNAQGEIWLAIHHFEKAVTLDPNFLDAYINLGNVLKEARIFDRAVAAYLRALSLSPNHAVVHGNLACVYYEQGLIDLAIDTYRRAIELQPHFPDAYCNLANALKEKGSVAEAEDCYNTALRLCPTHADSLNNLANIKREQGNIEEAVRLYRKALEVFPEFAAAHSNLASVLQQQGKLQEALMHYKEAIRISPTFADAYSNMGNTLKEMQDVQGALQCYTRAIQINPAFADAHSNLASIHKDSGNIPEAIASYRTALKLKPDFPDAYCNLAHCLQIVCDWTDYDERMKKLVSIVADQLEKNRLPSVHPHHSMLYPLSHGFRKAIAERHGNLCLDKINVLHKPPYEHPKDLKLSDGRLRVGYVSSDFGNHPTSHLMQSIPGMHNPDKFEVFCYALSPDDGTNFRVKVMAEANHFIDLSQIPCNGKAADRIHQDGIHILVNMNGYTKGARNELFALRPAPIQAMWLGYPGTSGALFMDYIITDQETSPAEVAEQYSEKLAYMPHTFFIGDHANMFPHLKKKAVIDFKSNGHIYDNRIVLNGIDLKAFLDSLPDVKIVKMKCPDGGDNADSSNTALNMPVIPMNTIAEAVIEMINRGQIQITINGFSISNGLATTQINNKAATGEEVPRTIIVTTRSQYGLPEDAIVYCNFNQLYKIDPSTLQMWANILKRVPNSVLWLLRFPAVGEPNIQQYAQNMGLPQNRIIFSPVAPKEEHVRRGQLADVCLDTPLCNGHTTGMDVLWAGTPMVTMPGETLASRVAASQLTCLGCLELIAKNRQEYEDIAVKLGTDLEYLKKVRGKVWKQRISSPLFNTKQYTMELERLYLQMWEHYAAGNKPDHMIKPVEVTESA
On to B1, for which, in assay [3], the binding result was “binds”.

B2: HA-OGT (enzyme, UniProt O15294 1-1046)
chain: MASSVGNVADSTEPTKRMLSFQGLAELAHREYQAGDFEAAERHCMQLWRQEPDNTGVLLLLSSIHFQCRRLDRSAHFSTLAIKQNPLLAEAYSNLGNVYKERGQLQEAIEHYRHALRLKPDFIDGYINLAAALVAAGDMEGAVQAYVSALQYNPDLYCVRSDLGNLLKALGRLEEAKACYLKAIETQPNFAVAWSNLGCVFNAQGEIWLAIHHFEKAVTLDPNFLDAYINLGNVLKEARIFDRAVAAYLRALSLSPNHAVVHGNLACVYYEQGLIDLAIDTYRRAIELQPHFPDAYCNLANALKEKGSVAEAEDCYNTALRLCPTHADSLNNLANIKREQGNIEEAVRLYRKALEVFPEFAAAHSNLASVLQQQGKLQEALMHYKEAIRISPTFADAYSNMGNTLKEMQDVQGALQCYTRAIQINPAFADAHSNLASIHKDSGNIPEAIASYRTALKLKPDFPDAYCNLAHCLQIVCDWTDYDERMKKLVSIVADQLEKNRLPSVHPHHSMLYPLSHGFRKAIAERHGNLCLDKINVLHKPPYEHPKDLKLSDGRLRVGYVSSDFGNHPTSHLMQSIPGMHNPDKFEVFCYALSPDDGTNFRVKVMAEANHFIDLSQIPCNGKAADRIHQDGIHILVNMNGYTKGARNELFALRPAPIQAMWLGYPGTSGALFMDYIITDQETSPAEVAEQYSEKLAYMPHTFFIGDHANMFPHLKKKAVIDFKSNGHIYDNRIVLNGIDLKAFLDSLPDVKIVKMKCPDGGDNADSSNTALNMPVIPMNTIAEAVIEMINRGQIQITINGFSISNGLATTQINNKAATGEEVPRTIIVTTRSQYGLPEDAIVYCNFNQLYKIDPSTLQMWANILKRVPNSVLWLLRFPAVGEPNIQQYAQNMGLPQNRIIFSPVAPKEEHVRRGQLADVCLDTPLCNGHTTGMDVLWAGTPMVTMPGETLASRVAASQLTCLGCLELIAKNRQEYEDIAVKLGTDLEYLKKVRGKVWKQRISSPLFNTKQYTMELERLYLQMWEHYAAGNKPDHMIKPVEVTESA
Consider B2, for which the binding result in assay [4], in assay [5] and in assay [6] was “binds” in each case.

B3: OGT of the in vitro GST pull-down (enzyme, UniProt O15294 1-1046)
chain: MASSVGNVADSTEPTKRMLSFQGLAELAHREYQAGDFEAAERHCMQLWRQEPDNTGVLLLLSSIHFQCRRLDRSAHFSTLAIKQNPLLAEAYSNLGNVYKERGQLQEAIEHYRHALRLKPDFIDGYINLAAALVAAGDMEGAVQAYVSALQYNPDLYCVRSDLGNLLKALGRLEEAKACYLKAIETQPNFAVAWSNLGCVFNAQGEIWLAIHHFEKAVTLDPNFLDAYINLGNVLKEARIFDRAVAAYLRALSLSPNHAVVHGNLACVYYEQGLIDLAIDTYRRAIELQPHFPDAYCNLANALKEKGSVAEAEDCYNTALRLCPTHADSLNNLANIKREQGNIEEAVRLYRKALEVFPEFAAAHSNLASVLQQQGKLQEALMHYKEAIRISPTFADAYSNMGNTLKEMQDVQGALQCYTRAIQINPAFADAHSNLASIHKDSGNIPEAIASYRTALKLKPDFPDAYCNLAHCLQIVCDWTDYDERMKKLVSIVADQLEKNRLPSVHPHHSMLYPLSHGFRKAIAERHGNLCLDKINVLHKPPYEHPKDLKLSDGRLRVGYVSSDFGNHPTSHLMQSIPGMHNPDKFEVFCYALSPDDGTNFRVKVMAEANHFIDLSQIPCNGKAADRIHQDGIHILVNMNGYTKGARNELFALRPAPIQAMWLGYPGTSGALFMDYIITDQETSPAEVAEQYSEKLAYMPHTFFIGDHANMFPHLKKKAVIDFKSNGHIYDNRIVLNGIDLKAFLDSLPDVKIVKMKCPDGGDNADSSNTALNMPVIPMNTIAEAVIEMINRGQIQITINGFSISNGLATTQINNKAATGEEVPRTIIVTTRSQYGLPEDAIVYCNFNQLYKIDPSTLQMWANILKRVPNSVLWLLRFPAVGEPNIQQYAQNMGLPQNRIIFSPVAPKEEHVRRGQLADVCLDTPLCNGHTTGMDVLWAGTPMVTMPGETLASRVAASQLTCLGCLELIAKNRQEYEDIAVKLGTDLEYLKKVRGKVWKQRISSPLFNTKQYTMELERLYLQMWEHYAAGNKPDHMIKPVEVTESA
As to B3, the binding result in assay [7] was “binds”.
